Measurements reported in PubChem BioAssay AID1259308 (NCATS, 2017)
Aim: 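Knock-downs that increase output of a recombinant reporter protein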 (primary screen). Cell system: human HEK293 embryonic kidney cells stably expressing firefly luciferase (HEK-CMV-Luc2-Hygro). Knock-down reagent: single siRNA against human genes, 0.8 pmol siRNA per well. Duration: 72 h. Detection: 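Reporter luminescence and viable-cell signal on separate replicate plates, given as percent of non-targeting control and median/MAD z-scores, plus per-cell luciferase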. Scale: total luciferase, z-score and total luciferase, % of control: higher = more reporter protein produced; luciferase per cell, z-score: higher = more reporter output per viable cell. Rule for the call: 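An siRNA counts as active if its total luciferase robust z-score exceeds 3; genes with two or more such siRNAs out of three were retested with fresh siRNAs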. Calls: active = raised luciferase; inactive = no rise.
The deposit covers about 59,000 reagents; shown is an unselected part. About 1,510 of all reagents (2.6%) were called active. 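Calls use total luciferase alone and ignore viability, so some active siRNAs may act by altering cell number.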 Unmarked entries are inactive. Reagents against one gene are numbered here. Further read-outs or replicates are left out here. Reagent sequences are not shown.

target gene,reagent no.,"total luciferase, z-score","total luciferase, % of control","luciferase per cell, z-score"
RPL36AL (ribosomal protein L36a like),1,1.02,102,1.14
RPL36AL (ribosomal protein L36a like),2,-0.388,74.2,0.178
RPL36AL (ribosomal protein L36a like),3,-0.017,81.5,0.716
UBXN1 (UBX domain protein 1),1,-1.03,61.4,-0.886
UBXN1 (UBX domain protein 1),2,2.13,124,2.62
UBXN1 (UBX domain protein 1),3,-0.802,65.9,-1.22
LOC729995 (retired record),1,1.42,110,1.07
LOC729995 (retired record),2,3.01 (active),142,1.96
LOC729995 (retired record),3,2.41,130,2.25
KBTBD3 (kelch repeat and BTB domain containing 3),1,0.457,91,0.588
KBTBD3 (kelch repeat and BTB domain containing 3),2,-0.149,78.9,-0.366
KBTBD3 (kelch repeat and BTB domain containing 3),3,-0.533,71.3,-0.259
"SPINT4 (serine peptidase inhibitor, Kunitz type 4)",1,-0.318,75.6,-1.06
"SPINT4 (serine peptidase inhibitor, Kunitz type 4)",2,3.31 (active),148,2.67
"SPINT4 (serine peptidase inhibitor, Kunitz type 4)",3,0.281,87.5,0.155
LINC02870 (long independently transcribed non-coding RNA 2870),1,-0.182,78.3,-0.408
LINC02870 (long independently transcribed non-coding RNA 2870),2,6.69 (active),215,4.17
LINC02870 (long independently transcribed non-coding RNA 2870),3,1.66,115,1.69
BCKDHB (branched chain keto acid dehydrogenase E1 subunit beta),1,-1.04,61.1,-1.6
BCKDHB (branched chain keto acid dehydrogenase E1 subunit beta),2,-0.0984,79.9,0.333
BCKDHB (branched chain keto acid dehydrogenase E1 subunit beta),3,-1,62,0.322
NAPG (NSF attachment protein gamma),1,-0.136,79.2,-0.0885
NAPG (NSF attachment protein gamma),2,-0.0657,80.6,0.182
NAPG (NSF attachment protein gamma),3,0.388,89.6,0.605
ATP1A1 (ATPase Na+/K+ transporting subunit alpha 1),1,0.623,94.3,1.24
ATP1A1 (ATPase Na+/K+ transporting subunit alpha 1),2,-1.08,60.4,-0.146
ATP1A1 (ATPase Na+/K+ transporting subunit alpha 1),3,1.98,121,3.35
LINC01521 (long independently transcribed non-coding RNA 1521),1,0.31,88,1.17
LINC01521 (long independently transcribed non-coding RNA 1521),2,0.308,88,0.587
LINC01521 (long independently transcribed non-coding RNA 1521),3,-0.153,78.9,-0.715
TNFRSF13C (TNF receptor superfamily member 13C),1,2.79,137,1.61
TNFRSF13C (TNF receptor superfamily member 13C),2,2.99,141,2.43
TNFRSF13C (TNF receptor superfamily member 13C),3,1.2,106,0.887
APCDD1 (APC down-regulated 1),1,0.433,90.5,0.219
APCDD1 (APC down-regulated 1),2,-1.59,50.3,-1.52
APCDD1 (APC down-regulated 1),3,-0.561,70.7,1.31
SSNA1 (SS nuclear autoantigen 1),1,-0.06,80.7,0.708
SSNA1 (SS nuclear autoantigen 1),2,1.16,105,0.995
SSNA1 (SS nuclear autoantigen 1),3,-0.457,72.8,-0.315
DHRS1 (dehydrogenase/reductase 1),1,1.23,106,0.971
DHRS1 (dehydrogenase/reductase 1),2,-1.22,57.6,-0.219
DHRS1 (dehydrogenase/reductase 1),3,0.453,90.9,-0.0837
KRTDAP (keratinocyte differentiation associated protein),1,2.99,141,3.1
KRTDAP (keratinocyte differentiation associated protein),2,-0.518,71.6,-1.05
KRTDAP (keratinocyte differentiation associated protein),3,0.881,99.4,0.805
TMEM116 (transmembrane protein 116),1,1.07,103,1.63
TMEM116 (transmembrane protein 116),2,-0.273,76.4,0.0792
TMEM116 (transmembrane protein 116),3,-0.0885,80.1,0.101
TMEM116 (transmembrane protein 116),4,-0.427,73.4,-0.133
TMEM116 (transmembrane protein 116),5,1.35,109,1.36
TMEM116 (transmembrane protein 116),6,-0.442,73.1,0.602
RCN1 (reticulocalbin 1),1,0.408,90,0.114
RCN1 (reticulocalbin 1),2,-1.01,61.8,-0.954
RCN1 (reticulocalbin 1),3,0.375,89.3,0.326
RPL14 (ribosomal protein L14),1,-2.85,25.1,-1.75
RPL14 (ribosomal protein L14),2,-2.82,25.8,-1.8
RPL14 (ribosomal protein L14),3,-2.24,37.3,-2.73

Targets listed so far whose gene name starts with R or r:
target gene,reagent no.,"total luciferase, z-score","total luciferase, % of control","luciferase per cell, z-score"
RPL36AL (ribosomal protein L36a like),1,1.02,102,1.14
RPL36AL (ribosomal protein L36a like),2,-0.388,74.2,0.178
RPL36AL (ribosomal protein L36a like),3,-0.017,81.5,0.716
RCN1 (reticulocalbin 1),1,0.408,90,0.114
RCN1 (reticulocalbin 1),2,-1.01,61.8,-0.954
RCN1 (reticulocalbin 1),3,0.375,89.3,0.326
RPL14 (ribosomal protein L14),1,-2.85,25.1,-1.75
RPL14 (ribosomal protein L14),2,-2.82,25.8,-1.8
RPL14 (ribosomal protein L14),3,-2.24,37.3,-2.73
